Measured values published in US6818647B2, “Method and composition for restoring diuretic and renal function” (CV Therapeutics, Inc, priority 1998, dated 2004).
Entries after “also recorded” stand apart in the source; their conditions may differ.

Tests used:
[1] = system: Male Sprague-Dawley rats; assay: Sustained i.v. infusion of diuretics in conscious catheterised rats: dose response, combinations, renal clearance (Example 2); format: in vivo, rat
Description: Male Sprague-Dawley rats were obtained from Charles River Labs (Wilmington, Del.). They were housed in a light-controlled room with a 12 h light/dark cycle and were allowed ad libitum access to food and water.
Catheters were implanted in the abdominal aorta and vena cava via the left femoral artery and vein under a mixture of ketamine hydrochloride (50 mg/kg) and acepromazine (0.2 mg/kg, i.m.) anesthesia. An additional medical grade Tygon tubing was placed in the he stomach at the left extremity of the greater curvature. A silastic-covered stainless steel cannula was implanted in the bladder. Details of surgery, pre and post-surgical care and the experimental set-ups have been described in detail previously (87). Experiments were conducted 4-5 days following surgery, by which time the rats had fully recovered and were gaining weight. During the recovery, the rats were housed individually and were accustomed to a plastic retainer (model ECU, Braintree Scientific, Inc., Braintree, Mass.).
Between 8:00-9:00 AM, rats were weighed and placed in the restrainer. The arterial line was connected to a Gilson polygraph via a Gould pressure transducer for the recording of blood pressure (MAP) and heart rate (HR); the venous line to infusion pumps for the infusion of vehicle and test agents; and the stomach tube to a 10 or 20 cc syringe to allow for the replacement of excess urinary loss. […]
Urinary and plasma concentrations of […] and PAH were determined by spectrophotometry, electrolyte concentrations were measured using the Synchron ASB Clinical System (Beckman Instr. Inc., Brea, Calif.) and osmolality by an automatic osmometer (Model 2430, Precision Systems, Inc., Natick, Mass.). Renal clearance values were calculated using standard clearance formulae and expressed per 100 g body weight.
All values represent maximal changes, expressed as absolute values, and are reported throughout as group means+−SEM. Data from the does-response studies (groups 1-5) were analyzed using an analysis of variance for repeated measures, post-hoc comparisons were made with the Schette f-test. […]

[2] = system: patients with NYHA Class II or III CHF; assay: Renal function in CHF patients after single intravenous dose (Example 1); conditions: 0-2 hours, mean, single i.v. dose
[3] = system: Male Sprague-Dawley rats; assay: Renal function of anesthetized rats after 0-3 days of furosemide, before and after BG9719 IV (Example 7); format: in vivo, rat; conditions: after 2 and 3 days of furosemide 100 mg/kg orally
Description: Twenty four hours after their last dose, they were anesthetized and instrumented to measure renal function and hemodynamics.
We collected a 30 minute baseline urine and determined basal sodium excretion in these rats.
Twenty-four hours after the last dose was administered, the rats were anesthetized and instrumented to measure renal function. […] Urine was collected via an implanted bladder catheter.

[4] = renal clearance study, BG9719 1 or FUR 10 μg/kg/min i.v. for 90 min

SMILES: NS(=O)(=O)c1cc(C(=O)O)c(NCc2ccco2)cc1Cl [furosemide]
- absolute and fractional excretions of sodium [1, 4]: increased
- fractional excretion of potassium [1, 4]: increased
- Potassium excretion ([1]; sustained i.v. infusion, dose response, single agents): significantly increased
- NA + excretion [2]: increased
- NA + excretion ([2]; listed as Furosemide): 103 mEq
- basal sodium excretion [3]: continues to decrease; also recorded: basically excreting no sodium
